# Results taken from PubChem BioAssay AID504810 (National Center for Advancing Translational Sciences (NCATS), 2011).
# Sequences of proteins named here, by UniProt entry; tags and fusion partners are left off.
# UniProt P16473, whole entry, looked up: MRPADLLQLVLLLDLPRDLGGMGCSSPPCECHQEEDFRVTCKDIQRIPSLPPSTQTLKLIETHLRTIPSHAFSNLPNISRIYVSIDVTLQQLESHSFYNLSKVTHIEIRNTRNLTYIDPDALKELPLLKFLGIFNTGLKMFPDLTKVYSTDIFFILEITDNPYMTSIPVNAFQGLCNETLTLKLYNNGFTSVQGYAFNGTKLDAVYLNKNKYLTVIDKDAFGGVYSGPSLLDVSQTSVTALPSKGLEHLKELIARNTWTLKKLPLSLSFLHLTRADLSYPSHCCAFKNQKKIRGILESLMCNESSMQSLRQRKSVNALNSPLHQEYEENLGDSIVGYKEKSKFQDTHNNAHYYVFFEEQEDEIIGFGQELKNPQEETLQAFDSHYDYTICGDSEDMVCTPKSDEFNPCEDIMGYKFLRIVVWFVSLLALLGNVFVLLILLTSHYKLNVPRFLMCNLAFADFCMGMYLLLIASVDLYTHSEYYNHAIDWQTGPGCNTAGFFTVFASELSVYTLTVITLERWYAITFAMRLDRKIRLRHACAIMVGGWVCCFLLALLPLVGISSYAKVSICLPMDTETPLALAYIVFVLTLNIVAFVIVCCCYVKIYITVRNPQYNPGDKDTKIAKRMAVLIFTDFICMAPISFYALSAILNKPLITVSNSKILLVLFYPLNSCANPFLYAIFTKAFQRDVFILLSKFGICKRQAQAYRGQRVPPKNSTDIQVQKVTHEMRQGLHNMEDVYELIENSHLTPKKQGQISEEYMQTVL
# Where “and” joins values, the source holds several entries; their conditions need not be identical. Equal values may be shown once. In all, about 330,000 compounds went through this assay and about 670 (0.2%) were called active. The shares of active, inactive and inconclusive entries below differ from those in the screen.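 The calls were made as follows: active = activity change below a set negative limit, meaning inhibition stronger than a set level (cut at about -70% in these data); inconclusive = activity change between two set negative limits; inactive = the rest.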
# Target: Thyrotropin receptor (Homo sapiens) (UniProt P16473)
# Assay: Antagonists of the Thyroid Stimulating Hormone Receptor: HTS campaign
# Details: TSHR-expressing cells, TSH-stimulated cAMP HTRF, 2 h; at 11.5 µM; stronger effect = lower value
# Method in brief: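 Inhibition of cAMP made by TSHR-expressing cells under TSH stimulation (4nM final, EC80; 2 h, 37 deg C) is quantified with a one-step lysis HTRF kit, anti-cAMP cryptate versus cAMP-d2.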
# % is scaled to controls: 0 for no effect and ±100 for the full control effect.
row,Compound,"activity change, negative = inhibition"
1,CCCSC1=C(C#N)C(c2cccs2)C(C(=O)Nc2ccccc2)=C(C)N1 (centres undefined),active: -78.7%
2,Cc1c(NC(=O)CSc2ccc(Cl)cc2)cccc1-c1nc2ncccc2o1,inactive: -17.1%
3,CCC(C)c1ccc(NC(=O)C2CCCN(c3ncccn3)C2)cc1 (centres undefined),inconclusive: -63%
4,CCCCCCCCCCCC(=O)c1c(O)cccc1O,inconclusive: -50.2%
5,C=C1CCC2C(C)(C)[C@@H](O)CC[C@@]2(C)[C@@H]1COc1ccc2ccc(=O)oc2c1 (some centres undefined),active: -75.7%
6,COc1ccc(NS(=O)(=O)c2ccc(NN=Cc3ccc(C(=O)O)cc3)c([N+](=O)[O-])c2)cc1,inconclusive: -53.8%
7,Cc1ccc(-n2c(C)cc(C(=O)CSc3nncs3)c2C)cc1,inconclusive: -61.1%
8,CCS(=O)(=O)c1ncc(Cl)c(C(=O)Nc2ccc(S(=O)(=O)N3CCC(C)CC3)cc2)n1,active: -78%
9,COc1ccc(OC)c(NC(=O)CSc2ncnc3c2cnn3-c2ccccc2Cl)c1,inconclusive: -57%
10,CCN(CC)S(=O)(=O)c1cccc(C(=O)/C=C2/N(C)c3ccccc3C2(C)C)c1,inconclusive: -57.4%
11,COC(=O)N/N=C/c1cn(Cc2c(Cl)cccc2Cl)c2ccccc12,inactive: 22.3%
12,C/C(=N\OCC(=O)OC(C)C(=O)Nc1ccc(C(N)=O)cc1)c1ccc2c(c1)OCO2 (centres undefined),inactive: -7.02%
13,COc1cc2c(cc1OC)C1(C)N(CC2)C(C(C)=O)=NN1c1ccc(Cl)cc1 (centres undefined),inconclusive: -66.4%
14,CSc1ccccc1C(=O)Nc1cc2c(cc1C(=O)O)OCCCO2,inactive: 8.84%
15,O=S(=O)(Nc1ncccn1)c1ccc(NC(=S)Nc2ccccc2Cl)cc1,inactive: -1.38%
16,CC(C)(C)NC(=O)NC(=O)CN1c2cccc3cccc(c23)S1(=O)=O,inconclusive: -67.6%
17,CCN(CC)c1ccc(NC2=C(Cl)C(=O)c3ccccc3C2=O)cc1,active: -92.8%
18,CN(c1ccc(OCC(=O)Nc2nc3ccccc3s2)cc1)S(=O)(=O)c1ccccc1,inconclusive: -54%
19,CC1=C(C(=O)OCC(Cl)(Cl)Cl)N2C(=O)C(NC(=O)Cc3ccccc3)C2SC1 (centres undefined),active: -77.2%
20,COc1ccc(-c2csc(NC(=O)c3ccccc3NS(=O)(=O)c3ccc(C)cc3)n2)cc1,active: -81.7%
21,Nc1nc(SCC(=O)Nc2cc(Cl)c(Cl)cc2Cl)n[nH]1,active: -74%
22,Cc1ccc(NC(=S)N2CCc3[nH]c4ccccc4c3C2)cc1,inactive: 11.3%
23,O=c1cc(C(F)(F)F)nc(SC/C=C/c2ccccc2)[nH]1,inconclusive: -69.5%
24,O=C(Nc1cccc(S(=O)(=O)N2CCCCC2)c1)c1ccccc1NS(=O)(=O)c1ccc(F)cc1,inconclusive: -62.4%
25,CCOC(=O)Cc1csc(NC(=O)COc2ccc(N(C)S(=O)(=O)c3cccs3)cc2)n1,inconclusive: -53%
26,O=C(NCCC1=CCCCC1)C(=O)NCC1OCCCN1S(=O)(=O)c1cc(F)ccc1F (centres undefined),active: -96.4%
27,CCOC(=O)N1CCC(NC(=O)CS(=O)Cc2nc(-c3ccc(Cl)cc3)oc2C)CC1 (centres undefined),inactive: -8.75%

# In the list so far, three contain an NH in an aromatic ring.
row,Compound,"activity change, negative = inhibition"
21,Nc1nc(SCC(=O)Nc2cc(Cl)c(Cl)cc2Cl)n[nH]1,active: -74%
22,Cc1ccc(NC(=S)N2CCc3[nH]c4ccccc4c3C2)cc1,inactive: 11.3%
23,O=c1cc(C(F)(F)F)nc(SC/C=C/c2ccccc2)[nH]1,inconclusive: -69.5%

# The list goes on:

row,Compound,"activity change, negative = inhibition"
1,Cc1ccc2nc(Cl)c3nnnn3c2c1,inconclusive: -50.7%
2,O=C(CNc1cc(S(=O)(=O)N2CCCC2)ccc1OCC(F)(F)F)Nc1ccc(SC(F)F)cc1,inconclusive: -53.7%
3,O=c1cc(-c2ccccc2Cl)oc2c(NS(=O)(=O)c3cc(Cl)cc(Cl)c3O)ccc(O)c12,inconclusive: -60.6%
4,CN(C)S(=O)(=O)N1CCN(c2ccnc3cc(Cl)ccc23)CC1,active: -120%
5,COc1cccc(-c2nc(CS(=O)(=O)CC(=O)NC3CCCCCC3)c(C)o2)c1,active: -97%
6,Cc1cc(N=NC(=O)c2ccccc2O)c2ccccc2c1O,active: -71.8%
7,Cc1nnc(N/N=C/c2ccccc2F)n1N,inactive: 0.601%
8,COc1ccc(C(=S)NCS(=O)(=O)c2ccc(C)cc2)cc1,inactive: 0.849%
9,CC(=O)c1ccc(N(C(=O)CNC(=O)c2ccco2)C(C(=O)NC2CCCC2)c2ccncc2)cc1 (centres undefined),active: -93.2%
10,O=C1CN(C(=O)/C=C/c2ccccc2)CCN1,inconclusive: -64.3%
11,CCCCCCCN1C/C=C\C(c2ccc(OC)cc2)N(Cc2ccc(F)cc2)C(=O)[C@H]1Cc1ccccc1 (some centres undefined),inconclusive: -56.9%
12,CCCC(c1nnnn1Cc1ccccc1)N1CCN(c2ccccc2OC)CC1 (centres undefined),inconclusive: -53%
13,Oc1ccc(C(=S)N2CCN(Cc3ccccc3)CC2)cc1,inactive: -6.03%
14,Cc1cc(C)c(C2=NOC3C4CCC(C4)C23)c(C)c1 (centres undefined),inconclusive: -52.6%
15,CCOC(=O)COc1ccccc1/C=C\[N+](=O)[O-],inconclusive: -54.9%
16,O=C(OCCN1CCN(C2=NS(=O)(=O)c3ccccc32)CC1)c1ccccc1F,inconclusive: -53%
17,Cc1ccnc(OC(C(=O)O)C(OCCc2ccccc2)(c2ccccc2)c2ccccc2)n1 (centres undefined),inconclusive: -56.4%
18,COC(=O)[C@H](Cc1ccccc1)NC(=O)[C@@]1(C)C[C@@H]1[C@@H](NC(=O)OCc1ccccc1)c1ccccc1,active: -82.2%
19,O=c1cc(-c2ccccc2)c2cc(Cl)c(O)c(CN3CCOCC3)c2o1,inconclusive: -62.9%
20,Cc1nc(N2CCN(C(=O)COc3ccccc3)CC2)c2c(C)c(C)sc2n1,inconclusive: -54.1%
21,COc1ccc(Oc2ccc(/C=C/C(=O)c3ccc(O)cc3)cc2[N+](=O)[O-])cc1,inconclusive: -61.7%
22,COc1ccccc1OCC(=O)O,inactive: -4.25% and inactive: -8.8%
23,CCOC(=O)CC1CCCCN1C(=O)c1cc(COc2cccc3cnccc23)on1 (centres undefined),inconclusive: -52.9%
24,COc1ccccc1N1CCN(C(=O)CCC(=O)N2CCN(c3ccc(F)cc3)CC2)CC1,active: -124%
25,N#CCCn1cc(/C=N/NC(N)=S)c(-c2ccccc2)n1,inactive: -12.3%
26,COc1ccccc1C(=O)Nc1sc(C(=O)N2CCCC2)c(C)c1C#N,inconclusive: -52.3%
27,Cc1cc(NC(=O)CC(C)C)c(=O)n(Cc2cccc(F)c2)c1,inconclusive: -61.9%

# Reformatted with tabs: two of the compounds above.
row	Compound	activity change, negative = inhibition
21	COc1ccc(Oc2ccc(/C=C/C(=O)c3ccc(O)cc3)cc2[N+](=O)[O-])cc1	inconclusive: -61.7%
22	COc1ccccc1OCC(=O)O	inactive: -4.25% and inactive: -8.8%
